Measurements: PubChem BioAssay AID540276 (National Center for Advancing Translational Sciences (NCATS), 2011)
Out of some 300,000 compounds screened, about 5,400 (1.8%) were called active. Inconclusive results, whose numbers are uncertain, are shown with a selection of clear calls. Calls follow the shape of the full dose curve; tested in HEK293 cells. Where the call is inconclusive, the potency comes from a doubtful curve fit.

test: qHTS for inhibitors of binding or entry into cells for Marburg Virus; settings: Marburg virus pseudotyped entry inhibition, cell reporter; activity change, negative = inhibition: at 37.8 µM (top of the series) unless noted
% is scaled to controls: 0 for no effect and ±100 for the full control effect; potency is read from the fitted curve at half-maximal effect.

SMILES | Potency | activity change, negative = inhibition
Cc1cc(C)cc(NCc2cc(=O)oc3cc(-c4ccccc4)c(O)cc23)c1 | inconclusive: 0.199 µM [inhibitor, full curve, poor fit] | –
Cc1cc(C)c(C(=O)CSc2nnc(-c3cccnc3)n2C)c(C)c1 | – | inactive: 20.4%
COc1ccc(Oc2ccccc2/C=N/O)cc1 | inconclusive: 2.51 µM [inhibitor, partial curve, poor fit] | –
CCCC(=O)Nc1cc(-c2nn(C)c(=O)c3ccccc23)ccc1N1CCCCC1 | inconclusive: 16.4 µM [inhibitor, partial curve] | –
Cc1cccnc1NC(=O)Cn1nc(-c2ccccc2)oc1=S | inconclusive: 0.316 µM [activator, partial curve, poor fit] | –
Cc1cccc(NC(=O)Cn2c(=O)n(CCCCCC(=O)NCc3ccccc3)c(=O)c3sccc32)c1 | inconclusive: 35.5 µM [activator, single point] | –
Cc1ccc(Cl)cc1NC(=O)CNCC(c1ccccc1)N(C)C (configuration not stated) | inconclusive: 0.501 µM [inhibitor, full curve, poor fit] | –
COc1cccc(C(=O)N/N=C(/CCC(=O)O)c2ccccc2)c1 | inconclusive: 35.5 µM [activator, single point] | –
Cc1ccc(-n2cc(CNCCCN3CCCC3=O)c(-c3ccc(F)cc3)n2)cc1 | inconclusive: 7.94 µM [inhibitor, partial curve, poor fit] | –
COC(=O)C1=C(C)NC(C)=C(C(=O)OC)C1C(=O)OCc1nnc(-c2ccccc2)o1 | – | inactive: -7.84%
Cc1ccc2c(c1)C1C[N+](C)(CC(=O)Nc3ccccc3Cl)CCC1N2C(=O)c1ccccc1Cl (configuration not stated) | inconclusive: 1.26 µM [activator, single point] | –
CC1CCCCN1S(=O)(=O)c1ccc(NC(=O)c2ccco2)cc1 (configuration not stated) | – | inactive: -9.75%
Cc1ccc(C)c(-c2nnc(OCC(=O)Nc3cc(C)on3)c3ccccc23)c1 | inconclusive: 35.5 µM [inhibitor, single point] | –
Cn1cc(C(=O)N/N=C/c2cccs2)c2ccccc21 | inconclusive: 1.58 µM [activator, partial curve, poor fit] | –
O=C(N/C(=C\c1ccc(Br)cc1)C(=O)N1CCCC1)c1ccccc1F | inconclusive: 3.55 µM [activator, single point] | –
CCN(CC)S(=O)(=O)c1cccc(NC(=O)c2cc3ccccc3o2)c1 | – | inactive: 8.78%
Cc1ccc(C2C=C(c3ccccc3)Nc3nc(NS(=O)(=O)c4ccccc4)nn32)cc1 (configuration not stated) | inconclusive: 0.562 µM [activator, full curve, poor fit] | –

Entries of single compounds as entered above:
Cc1ccc2c(c1)C1C[N+](C)(CC(=O)Nc3ccccc3Cl)CCC1N2C(=O)c1ccccc1Cl (configuration not stated) in the list: Potency: inconclusive: 1.26 µM [activator, single point]
COC(=O)C1=C(C)NC(C)=C(C(=O)OC)C1C(=O)OCc1nnc(-c2ccccc2)o1 in the list: activity change, negative = inhibition: inactive: -7.84%
